Data source: PubChem BioAssay AID1224828 (NIAID, 2016)

Assay: 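Regulators linking TLR4 signalling to p65 nuclear translocation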 (primary screen)
System: mouse RAW264.7 G9 macrophage reporter cells (GFP-p65, Tnf promoter-mCherry)
Reagent: siRNA pool against mouse genes, 100 nM
Duration: 2 days siRNA transfection, then 40 min LPS before fixation
Treatment: LPS (Salmonella minnesota R595) at 10 ng/ml
Detection: 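Imaged p65 nuclear translocation ratio, normalised to the plate median, converted to robust z-scores and averaged across two replicates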
Scale: p65 translocation robust z-score: higher = more nuclear NF-kappaB p65 after LPS than the plate median; nuclear/cytoplasmic p65 ratio: higher = more nuclear NF-kappaB p65
Call rule: 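Active if robust z is above 3.3 (negative regulators) or below -1.56, the Tlr4 control median (positive regulators); activity score 50 or more; control wells not called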
Meaning of the calls: active = hit (p65 shift raised or lowered); inactive = no clear change
The whole screen tested about 17,000 reagents; shown is a random part of them. 762 of them (4.5%) count as active. 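Active calls include both raised and lowered p65 entry, mostly lowered; wells with fewer than 50 cells lack a z-score.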 Raw values vary from plate to plate and are shown uncorrected. Entries without a mark were called inactive. Reagent sequences are not shown.

The opening 2 entries, to show the layout:
{"gene":"Tmem101","PubChem SID":"SID315475338","p65 translocation robust z-score":0.36,"nuclear/cytoplasmic p65 ratio, rep 1":1.46,"nuclear/cytoplasmic p65 ratio, rep 2":1.5,"low cell count flag":"enough cells to score"}
{"gene":"Msmo1","PubChem SID":"SID315472307","p65 translocation robust z-score":-0.22,"nuclear/cytoplasmic p65 ratio, rep 1":1.57,"nuclear/cytoplasmic p65 ratio, rep 2":1.41,"low cell count flag":"enough cells to score"}

Results, repeating the preview:
{"gene":"Tmem101","PubChem SID":"SID315475338","p65 translocation robust z-score":0.36,"nuclear/cytoplasmic p65 ratio, rep 1":1.46,"nuclear/cytoplasmic p65 ratio, rep 2":1.5,"low cell count flag":"enough cells to score"}
{"gene":"Msmo1","PubChem SID":"SID315472307","p65 translocation robust z-score":-0.22,"nuclear/cytoplasmic p65 ratio, rep 1":1.57,"nuclear/cytoplasmic p65 ratio, rep 2":1.41,"low cell count flag":"enough cells to score"}
{"gene":"Zfp979","PubChem SID":"SID315476972","p65 translocation robust z-score":-0.6,"nuclear/cytoplasmic p65 ratio, rep 1":1.36,"nuclear/cytoplasmic p65 ratio, rep 2":1.34,"low cell count flag":"enough cells to score"}
{"gene":"Glrx2","PubChem SID":"SID315473793","p65 translocation robust z-score":0.93,"nuclear/cytoplasmic p65 ratio, rep 1":1.51,"nuclear/cytoplasmic p65 ratio, rep 2":1.54,"low cell count flag":"enough cells to score"}
{"gene":"R3hdm1","PubChem SID":"SID315478495","nuclear/cytoplasmic p65 ratio, rep 1":1.33,"nuclear/cytoplasmic p65 ratio, rep 2":1.22,"low cell count flag":"fewer than 50 cells per well; well left out of scoring"}
{"gene":"Rgs2","PubChem SID":"SID315468968","nuclear/cytoplasmic p65 ratio, rep 1":1.66,"nuclear/cytoplasmic p65 ratio, rep 2":1.57,"low cell count flag":"fewer than 50 cells per well; well left out of scoring"}
{"gene":"Brdt","PubChem SID":"SID315477021","p65 translocation robust z-score":0.05,"nuclear/cytoplasmic p65 ratio, rep 1":1.52,"nuclear/cytoplasmic p65 ratio, rep 2":1.53,"low cell count flag":"enough cells to score"}
{"gene":"Ttc24","PubChem SID":"SID315477849","p65 translocation robust z-score":0.36,"nuclear/cytoplasmic p65 ratio, rep 1":1.39,"nuclear/cytoplasmic p65 ratio, rep 2":1.62,"low cell count flag":"enough cells to score"}
{"gene":"Mettl18","PubChem SID":"SID315473948","p65 translocation robust z-score":"-2.18 (active)","nuclear/cytoplasmic p65 ratio, rep 1":1.02,"nuclear/cytoplasmic p65 ratio, rep 2":1.01,"low cell count flag":"enough cells to score"}
{"gene":"Crmp1","PubChem SID":"SID315466123","p65 translocation robust z-score":0.37,"nuclear/cytoplasmic p65 ratio, rep 1":1.57,"nuclear/cytoplasmic p65 ratio, rep 2":1.9,"low cell count flag":"enough cells to score"}
{"gene":"Taar9","PubChem SID":"SID315481971","p65 translocation robust z-score":0.74,"nuclear/cytoplasmic p65 ratio, rep 1":1.59,"nuclear/cytoplasmic p65 ratio, rep 2":1.72,"low cell count flag":"enough cells to score"}
{"gene":"Ifi202b","PubChem SID":"SID315470371","p65 translocation robust z-score":0.35,"nuclear/cytoplasmic p65 ratio, rep 1":1.59,"nuclear/cytoplasmic p65 ratio, rep 2":1.39,"low cell count flag":"enough cells to score"}
{"gene":"Or6k14","PubChem SID":"SID315480720","p65 translocation robust z-score":1.13,"nuclear/cytoplasmic p65 ratio, rep 1":1.65,"nuclear/cytoplasmic p65 ratio, rep 2":1.35,"low cell count flag":"enough cells to score"}
{"gene":"Zdhhc16","PubChem SID":"SID315474885","p65 translocation robust z-score":-1.45,"nuclear/cytoplasmic p65 ratio, rep 1":1.2,"nuclear/cytoplasmic p65 ratio, rep 2":1.08,"low cell count flag":"enough cells to score"}
